Laboratory results: PubChem BioAssay AID1259308 (NCATS, 2017)
Screen: 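Genes whose loss raises luciferase production in HEK293 cells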 (primary screen). System: human HEK293 embryonic kidney cells stably expressing firefly luciferase (HEK-CMV-Luc2-Hygro). Knock-down reagent: single siRNA against human genes, 0.8 pmol siRNA per well. Time to read-out: 72 h. Measured: 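Reporter luminescence and viable-cell signal on separate replicate plates, given as percent of non-targeting control and median/MAD z-scores, plus per-cell luciferase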. Scale: total luciferase, z-score and total luciferase, % of control: higher = more reporter protein produced; luciferase per cell, z-score: higher = more reporter output per viable cell. Call rule: 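An siRNA counts as active if its total luciferase robust z-score exceeds 3; genes with two or more such siRNAs out of three were retested with fresh siRNAs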. Meaning of the calls: active = raised luciferase; inactive = no rise.
The whole screen tested about 59,000 reagents; this is an unselected part. Of all reagents, about 1,510 (2.6%) are marked active. 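Calls use total luciferase alone and ignore viability, so some active siRNAs may act by altering cell number.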 Entries without a mark were called inactive. Reagents against one gene are numbered here. Further read-outs or replicates are left out here.

no.	gene symbol	reagent no.	total luciferase, z-score	total luciferase, % of control	luciferase per cell, z-score
1	ZNF285	1	1.72	116	0.285
2	ZNF285	2	0.157	85	0.187
3	ZNF285	3	0.932	100	0.974
4	GXYLT1	1	0.863	99.1	0.386
5	GXYLT1	2	-0.233	77.3	-0.146
6	GXYLT1	3	-0.862	64.7	-1.51
7	LAMTOR4	1	-0.556	70.8	-0.325
8	LAMTOR4	2	-1.11	59.7	-1.22
9	LAMTOR4	3	-1.78	46.4	-1.72
10	IL17RE	1	0.312	88.1	0.591
11	IL17RE	2	1.39	110	0.681
12	IL17RE	3	-0.757	66.8	0.327
13	GOT1	1	0.831	98.4	0.292
14	GOT1	2	1.37	109	0.307
15	GOT1	3	-0.758	66.8	-0.648
16	ZSCAN10	1	1.02	102	2.48
17	ZSCAN10	2	-0.403	73.9	-0.817
18	ZSCAN10	3	-1.18	58.5	-0.961
19	VMA22	1	-0.711	67.7	0.264
20	VMA22	2	0.144	84.7	0.328
21	VMA22	3	-0.521	71.5	-0.377
22	FAM53B	1	0.45	90.8	0.622
23	FAM53B	2	0.417	90.2	0.0373
24	FAM53B	3	-2.05	41.1	-1.25
25	NID1	1	0.31	88.1	0.868
26	NID1	2	-0.244	77	-0.225
27	NID1	3	-0.443	73.1	0.0908
28	ZNF536	1	0.1	83.9	0.328
29	ZNF536	2	0.623	94.3	0.122
30	ZNF536	3	0.404	89.9	1.22
31	AIG1	1	0.638	94.6	0.0796
32	AIG1	2	-0.0809	80.3	-0.225
33	AIG1	3	1.84	118	1.34
34	ASPA	1	-0.175	78.4	-0.764
35	ASPA	2	-1.06	60.8	-1.3
36	ASPA	3	-0.369	74.6	-0.265
37	PLEKHA8	1	0.0787	83.5	-0.219
38	PLEKHA8	2	-1.49	52.3	-0.972
39	PLEKHA8	3	-0.578	70.4	-0.862
40	COL6A5	1	1.96	121	1.95
41	COL6A5	2	1.42	110	1.53
42	COL6A5	3	1.13	104	1.34
43	KIF1B	1	0.612	94.1	-0.343
44	KIF1B	2	-0.575	70.5	-0.621
45	KIF1B	3	0.596	93.7	1.84
46	SRPRA	1	-0.958	62.8	-1.63
47	SRPRA	2	1.58	113	1.58
48	SRPRA	3	-0.105	79.8	-0.465
49	SEMA6C	1	-0.0856	80.2	0.486
50	SEMA6C	2	-0.196	78	-0.252
51	SEMA6C	3	-0.434	73.3	0.238
52	CNIH4	1	0.365	89.1	0.145
53	CNIH4	2	-0.265	76.6	-0.0938
54	CNIH4	3	-1.19	58.1	-1.24
55	LOC646034 (retired record)	1	1.74	116	1.24
56	LOC646034 (retired record)	2	-0.389	74.2	0.0551
57	LOC646034 (retired record)	3	1.04	103	0.505

An excerpt from the list above, as a working copy:
no.	gene symbol	reagent no.	total luciferase, z-score	total luciferase, % of control	luciferase per cell, z-score
49	SEMA6C	1	-0.0856	80.2	0.486
50	SEMA6C	2	-0.196	78	-0.252
51	SEMA6C	3	-0.434	73.3	0.238
52	CNIH4	1	0.365	89.1	0.145
53	CNIH4	2	-0.265	76.6	-0.0938
